Data as given in PubChem BioAssay AID1259405 (NCATS, 2018).

Aim: 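Knock-downs that lift recombinant protein yield in hamster ovary cells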 (primary screen)
Cells: Chinese hamster CHO-K1 ovary cells with stable secreted eGFP expression
Reagent: single siRNA against mouse genes, 0.8 pmol siRNA per well (2 µl of 400 nM stock)
Duration: 3 days
Measured: 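Per-well intracellular GFP measured by laser scanning cytometry, plus viability from ATP luminescence, each relative to plate median of non-targeting control wells, in %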
Direction: GFP, % of control: higher = more GFP per well, higher productivity; viability (ATP), % of control: higher = more viable cells (more ATP)
Rule for the call: 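Called active when intracellular GFP, relative to negative control, is at or above 120%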
In all, the deposit lists about 50,000 reagents; below is a part drawn at random. About 4,000 of all reagents (8%) count as active. 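Mouse siRNA library applied to hamster cells; one well for each siRNA.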 A number with no mark means an inactive call. Reagents against one gene are numbered here.

| gene | reagent | GFP, % of control | viability (ATP), % of control |
| --- | --- | --- | --- |
| Atad5 (ATPase family, AAA domain containing 5) | 1 | 68.8 | 85.3 |
| Atad5 (ATPase family, AAA domain containing 5) | 2 | 74.7 | 54.1 |
| Atad5 (ATPase family, AAA domain containing 5) | 3 | 65 | 81.9 |
| Dennd2c (DENN domain containing 2C) | 1 | 60.7 | 41.4 |
| Dennd2c (DENN domain containing 2C) | 2 | 54.1 | 52.6 |
| Dennd2c (DENN domain containing 2C) | 3 | 94.4 | 91.8 |
| Ube2v2 (ubiquitin-conjugating enzyme E2 variant 2) | 1 | 75.8 | 75.6 |
| Ube2v2 (ubiquitin-conjugating enzyme E2 variant 2) | 2 | 69.9 | 64.6 |
| Ube2v2 (ubiquitin-conjugating enzyme E2 variant 2) | 3 | 65.4 | 94.7 |
| Ubfd1 (ubiquitin family domain containing 1) | 1 | 66.7 | 66.7 |
| Ubfd1 (ubiquitin family domain containing 1) | 2 | 105 | 58.6 |
| Ubfd1 (ubiquitin family domain containing 1) | 3 | 82.2 | 86.5 |
| Elovl5 (ELOVL fatty acid elongase 5) | 1 | 130 (active) | 94.7 |
| Elovl5 (ELOVL fatty acid elongase 5) | 2 | 108 | 184 |
| Elovl5 (ELOVL fatty acid elongase 5) | 3 | 80.2 | 122 |
| Rps2 (ribosomal protein S2) | 1 | 44.9 | 51.2 |
| Rps2 (ribosomal protein S2) | 2 | 54.4 | 57.9 |
| Rps2 (ribosomal protein S2) | 3 | 86.2 | 100 |
| Zkscan8 (zinc finger with KRAB and SCAN domains 8) | 1 | 92.5 | 98.8 |
| Zkscan8 (zinc finger with KRAB and SCAN domains 8) | 2 | 53.8 | 64.7 |
| Zkscan8 (zinc finger with KRAB and SCAN domains 8) | 3 | 74.5 | 105 |
| Abcc8 (ATP-binding cassette, sub-family C member 8) | 1 | 64.7 | 48.7 |
| Abcc8 (ATP-binding cassette, sub-family C member 8) | 2 | 99.4 | 78.6 |
| Abcc8 (ATP-binding cassette, sub-family C member 8) | 3 | 97.1 | 60.3 |
| Magea4 (MAGE family member A4) | 1 | 106 | 67.5 |
| Magea4 (MAGE family member A4) | 2 | 72.6 | 81.4 |
| Magea4 (MAGE family member A4) | 3 | 93.1 | 89.4 |
| Nagk (N-acetylglucosamine kinase) | 1 | 71 | 88.5 |
| Nagk (N-acetylglucosamine kinase) | 2 | 48.1 | 44.3 |
| Lrrc25 (leucine rich repeat containing 25) | 1 | 58 | 62.5 |
| Lrrc25 (leucine rich repeat containing 25) | 2 | 73.9 | 62.3 |
| Lrrc25 (leucine rich repeat containing 25) | 3 | 28.6 | 17.6 |
| F13a1 (coagulation factor XIII, A1 subunit) | 1 | 77.5 | 76.4 |
| F13a1 (coagulation factor XIII, A1 subunit) | 2 | 84.5 | 71.4 |
| F13a1 (coagulation factor XIII, A1 subunit) | 3 | 115 | 98.7 |
| Lhx4 (LIM homeobox protein 4) | 1 | 31.5 | 56.6 |
| Lhx4 (LIM homeobox protein 4) | 2 | 60.1 | 69.3 |
| Lhx4 (LIM homeobox protein 4) | 3 | 61.2 | 80.1 |
| Ttc19 (tetratricopeptide repeat domain 19) | 1 | 86.9 | 70.1 |
| Ttc19 (tetratricopeptide repeat domain 19) | 2 | 57 | 63.2 |
| Ttc19 (tetratricopeptide repeat domain 19) | 3 | 80.9 | 68 |
| Or2h15 (olfactory receptor family 2 subfamily H member 15) | 1 | 42.8 | 40.2 |
| Or2h15 (olfactory receptor family 2 subfamily H member 15) | 2 | 37.2 | 38.1 |
| Or2h15 (olfactory receptor family 2 subfamily H member 15) | 3 | 53.8 | 79.1 |
| Dpep3 (dipeptidase 3) | 1 | 126 (active) | 92.3 |
| Dpep3 (dipeptidase 3) | 2 | 97.7 | 111 |
| Dpep3 (dipeptidase 3) | 3 | 106 | 74.6 |
| Awat2 (acyl-CoA wax alcohol acyltransferase 2) | 1 | 89.5 | 66.2 |
| Awat2 (acyl-CoA wax alcohol acyltransferase 2) | 2 | 63.1 | 53.6 |
| Awat2 (acyl-CoA wax alcohol acyltransferase 2) | 3 | 71.7 | 46.5 |
| Tmsb4x (thymosin, beta 4, X chromosome) | 1 | 67.9 | 71 |
| Tmsb4x (thymosin, beta 4, X chromosome) | 2 | 82.5 | 77.1 |
| Tmsb4x (thymosin, beta 4, X chromosome) | 3 | 113 | 98.1 |
| Mycn (Mycn proto-oncogene, bHLH transcription factor) | 1 | 60.1 | 63.7 |
| Mycn (Mycn proto-oncogene, bHLH transcription factor) | 2 | 77.9 | 73.6 |
| Mycn (Mycn proto-oncogene, bHLH transcription factor) | 3 | 78.4 | 101 |
| Krt17 (keratin 17) | 1 | 42.7 | 69.8 |
| Krt17 (keratin 17) | 2 | 85.1 | 93.8 |
| Myl2 (myosin, light polypeptide 2, regulatory, cardiac, slow) | 1 | 63.8 | 33.4 |
| Myl2 (myosin, light polypeptide 2, regulatory, cardiac, slow) | 2 | 85.6 | 82.8 |
| Clec4b1 (C-type lectin domain family 4, member b1) | 1 | 66 | 73.1 |
| Clec4b1 (C-type lectin domain family 4, member b1) | 2 | 72.3 | 86.9 |
| Clec4b1 (C-type lectin domain family 4, member b1) | 3 | 77.9 | 79.9 |
| Sncg (synuclein, gamma) | 1 | 30.6 | 64.9 |
| Sncg (synuclein, gamma) | 2 | 65.7 | 83 |
| Sncg (synuclein, gamma) | 3 | 45 | 41.1 |
| Becn1 (beclin 1, autophagy related) | 1 | 112 | 89.3 |
| Becn1 (beclin 1, autophagy related) | 2 | 0 | 60.8 |
| Becn1 (beclin 1, autophagy related) | 3 | 87.1 | 97.2 |
| Cotl1 (coactosin like F-actin binding protein 1) | 1 | 53.5 | 83.7 |
| Cotl1 (coactosin like F-actin binding protein 1) | 2 | 60.7 | 70.1 |
| Cotl1 (coactosin like F-actin binding protein 1) | 3 | 70 | 109 |
| Xlr (X-linked lymphocyte-regulated) | 1 | 85.2 | 97.5 |
| Xlr (X-linked lymphocyte-regulated) | 2 | 106 | 75.4 |
| Xlr (X-linked lymphocyte-regulated) | 3 | 94.3 | 102 |
| Septin3 (septin 3) | 1 | 83 | 70.9 |
| Septin3 (septin 3) | 2 | 51.5 | 56.9 |
| Septin3 (septin 3) | 3 | 66.1 | 64.8 |
| Swi5 (SWI5 recombination repair homolog (yeast)) | 1 | 43 | 65 |
| Swi5 (SWI5 recombination repair homolog (yeast)) | 2 | 55.3 | 70.2 |
| Swi5 (SWI5 recombination repair homolog (yeast)) | 3 | 71.8 | 76.4 |
| Chd8 (chromodomain helicase DNA binding protein 8) | 1 | 41.5 | 25.8 |
| Chd8 (chromodomain helicase DNA binding protein 8) | 2 | 60.7 | 44.9 |
| Chd8 (chromodomain helicase DNA binding protein 8) | 3 | 47 | 68.6 |
